Experimental data published in the supplement of paper PMC4604168 (melanoma cell lines).
Some of the results follow. Many values rest on one well or one pass, so single values are uncertain.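 The apoptosis fraction was the count of cleaved-PARP antibody-stained nuclei relative to all DNA-stained nuclei, imaged in 1,536-well plates. Screening doses were set so most cells survived, and baseline and induced cleaved-PARP levels vary greatly across cell lines.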

How the values were obtained:
Assay in all cases: cleaved PARP positive nuclei fraction relative to DMSO control; melanoma cells; higher = more apoptosis
Conditions in all cases: library dose: low library concentration; 72 h
501Mel = test system: 501Mel
A101D = test system: A101D
A2058 = test system: A2058
C32 = test system: C32
CBRC008 = test system: CBRC008 (line from a melanoma biopsy)
CBRC014 = test system: CBRC014 (line from a melanoma biopsy)
CBRC016 = test system: CBRC016 (line from a melanoma biopsy)
CBRC017 = test system: CBRC017 (line from a melanoma biopsy)
COLO792 = test system: COLO792
COLO800 = test system: COLO800
COLO829 = test system: COLO829
G361 = test system: G361
IPC-298 = test system: IPC-298
IST-MEL1 = test system: IST-MEL1
LB2518-MEL = test system: LB2518-MEL
LOXIMVI = test system: LOXIMVI
A375 = test system: A375
CBRC013 = test system: CBRC013 (line from a melanoma biopsy)
MEL-HO = test system: MEL-HO
CBRC034 = test system: CBRC034 (line from a melanoma biopsy)

Structure (SMILES) | cleaved PARP positive nuclei fraction (501Mel) [%] | cleaved PARP positive nuclei fraction (A101D) [%] | cleaved PARP positive nuclei fraction (A2058) [%] | cleaved PARP positive nuclei fraction (C32) [%] | cleaved PARP positive nuclei fraction (CBRC008) [%] | cleaved PARP positive nuclei fraction (CBRC014) [%] | cleaved PARP positive nuclei fraction (CBRC016) [%] | cleaved PARP positive nuclei fraction (CBRC017) [%] | cleaved PARP positive nuclei fraction (COLO792) [%] | cleaved PARP positive nuclei fraction (COLO800) [%] | cleaved PARP positive nuclei fraction (COLO829) [%] | cleaved PARP positive nuclei fraction (G361) [%] | cleaved PARP positive nuclei fraction (IPC-298) [%] | cleaved PARP positive nuclei fraction (IST-MEL1) [%] | cleaved PARP positive nuclei fraction (LB2518-MEL) [%] | cleaved PARP positive nuclei fraction (LOXIMVI) [%] | cleaved PARP positive nuclei fraction (A375) [%] | cleaved PARP positive nuclei fraction (CBRC013) [%] | cleaved PARP positive nuclei fraction (MEL-HO) [%] | cleaved PARP positive nuclei fraction (CBRC034) [%]
O=c1[nH]nc(Sc2ncc([N+](=O)[O-])s2)n1-c1ccc2c(c1)OCCO2 + CC(C)CCN1c2nc(Nc3cc(F)c(O)c(F)c3)ncc2N(C)C(=O)C1C [BID1870] (first compound 0.2 µM, partner dose 0.2 µM) | 147 | 18.7 | 111 | 143 | 86.6 | 113 | 67.6 | 87 | 99.2 | 56 | 82.5 | 65.6 | 45.2 | 67.1 | 132 | 120 | – | – | – | –
O=C(/C=C/c1cccnc1)NCCCCC1CCN(C(=O)c2ccccc2)CC1 + COc1cc2ncnc(Nc3ccc(Oc4ccccc4)cc3)c2cc1OC [SrcI1] (first compound 0.01 µM, partner dose 2 µM) | 221 | 17.5 | 62 | 47.8 | 4100 | 154 | 164 | 344 | 315 | 1280 | 324 | 3240 | 138 | 58.7 | 219 | 80.3 | – | – | – | –
CCCCCCCCCCCCCCCCCCOP(=O)([O-])OC1CC[N+](C)(C)CC1 [Perifosine] + Cn1cc(/C=C2\C(=O)Nc3cccnc32)c2ccccc21 [GW441756] (first compound 0.4 µM, partner dose 0.4 µM) | 59.1 | 43.2 | 142 | 120 | 180 | 104 | 50.5 | 71.8 | 116 | 80.2 | 111 | 135 | 25.8 | 113 | 38.3 | 23.9 | – | – | – | –
O=c1[nH]nc(Sc2ncc([N+](=O)[O-])s2)n1-c1ccc2c(c1)OCCO2 + CCc1ccc(CCOc2ccc(CC3SC(=O)NC3=O)cc2)nc1 [pioglitazone] (first compound 0.2 µM, partner dose 2 µM) | 59.5 | 46.4 | 143 | 67.2 | 70.7 | 97.8 | 40.4 | 85.8 | 53.2 | 32.3 | 151 | 54.4 | 43.3 | 237 | 64.2 | 168 | – | – | – | –
O=C(Nc1cc(C(F)(F)F)cc(C(F)(F)F)c1)c1cc(Cl)ccc1O + O=C1NC(=O)/C(=C/c2ccc(-c3ccc(F)cc3O)o2)S1 [AS252424] (first compound 0.016 µM, partner dose 1 µM) | 65.7 | 11.4 | 121 | 194 | 208 | 210 | 92.3 | 95.4 | 61.7 | 37.5 | 75.1 | 109 | 133 | 86.1 | 39.7 | 108 | – | – | – | –
Cc1cn(-c2cc(NC(=O)c3ccc(C)c(Nc4nccc(-c5cccnc5)n4)c3)cc(C(F)(F)F)c2)cn1 [nilotinib] + Oc1nc(-c2ccc(C(F)(F)F)cc2)nc2c1CSCC2 [XAV939] (first compound 0.2 µM, partner dose 2 µM) | 69.8 | 39.8 | 78.2 | 79.1 | 118 | 79.3 | 60.3 | 163 | 45.6 | 150 | 50.1 | 90.2 | 48 | 82.7 | 358 | 39.9 | – | – | – | –
O=c1[nH]nc(Sc2ncc([N+](=O)[O-])s2)n1-c1ccc2c(c1)OCCO2 + COc1cc(N2CCC(N3CCN(C)CC3)CC2)ccc1Nc1ncc(Cl)c(Nc2ccccc2S(=O)(=O)C(C)C)n1 [NVP-TAE684] (first compound 0.2 µM, partner dose 0.08 µM) | 60.7 | 26.9 | 106 | 87.4 | 149 | 103 | 28.5 | 47.9 | 67.1 | 86.9 | 173 | 47.8 | 40.7 | 136 | 221 | 132 | – | – | – | –
O=C(/C=C/c1cccnc1)NCCCCC1CCN(C(=O)c2ccccc2)CC1 + NCC(=O)Nc1ccc(-n2nc(C(F)(F)F)cc2-c2ccc3c(ccc4ccccc43)c2)cc1 [OSU03012] (first compound 0.01 µM, partner dose 1 µM) | – | 93.7 | 71.6 | 150 | 2800 | 108 | 294 | 417 | 831 | 230 | 261 | 1700 | 300 | 89.1 | – | 27.6 | 7240 | 131 | 75.4 | –
N#CC[C@H](C1CCCC1)n1cc(-c2ncnc3[nH]ccc23)cn1 [ruxolitinib] + OCCn1cc(-c2cnc3nnn(Cc4ccc5ncccc5c4)c3n2)cn1 [PF04217903] (first compound 1 µM, partner dose 1 µM) | – | 70.4 | 283 | 114 | 81 | 82.1 | 104 | 93.4 | 181 | 57.1 | 102 | 201 | 91.2 | 32.4 | – | 157 | 138 | 115 | 218 | –
O=C(/C=C/c1cccnc1)NCCCCC1CCN(C(=O)c2ccccc2)CC1 + CC(C)CCN1c2nc(Nc3cc(F)c(O)c(F)c3)ncc2N(C)C(=O)C1C [BID1870] (first compound 0.01 µM, partner dose 0.2 µM) | 75.3 | 42 | 68.8 | 91.5 | 4910 | 95.8 | 576 | 420 | 473 | 116 | 502 | 4970 | 233 | 59.8 | 259 | 111 | – | – | – | –
Cc1cc(Nc2cc(N3CCN(C)CC3)nc(Sc3ccc(NC(=O)C4CC4)cc3)n2)n[nH]1 [Tozasertib] + O=C1NC(=O)/C(=C/c2ccc(-c3ccc(F)cc3O)o2)S1 [AS252424] (first compound 0.006 µM, partner dose 1 µM) | 143 | 43.1 | 82.3 | 81.6 | 159 | 115 | 73.5 | 155 | 87.5 | 127 | 184 | 74.6 | 47.1 | 62.3 | 157 | 100 | – | – | – | –
CC[C@]1(O)C[C@H]2CN(CCc3c([nH]c4ccccc34)[C@@](C(=O)OC)(c3cc4c(cc3OC)N(C=O)[C@H]3[C@@](O)(C(=O)OC)[C@H](OC(C)=O)[C@]5(CC)C=CCN6CC[C@]43[C@@H]65)C2)C1 [vincristine] + C[C@@H](Oc1cc(-c2cnn(C3CCNCC3)c2)cnc1N)c1c(Cl)ccc(F)c1Cl [Crizotinib] (first compound 0.0001 µM, partner dose 0.2 µM) | – | 68 | 188 | 197 | 36.4 | 99.9 | 83 | 205 | 188 | 110 | 52.9 | 180 | 90.3 | 25.8 | – | 98.3 | 364 | – | 177 | 45.1
COc1cc([C@@H]2c3cc4c(cc3[C@@H](O[C@@H]3O[C@@H]5CO[C@@H](C)O[C@H]5[C@H](O)[C@H]3O)[C@H]3COC(=O)[C@H]23)OCO4)cc(OC)c1O [etoposide] + CC(=O)c1c(C)c2cnc(Nc3ccc(N4CCNCC4)cn3)nc2n(C2CCCC2)c1=O [palbociclib] (first compound 0.02 µM, partner dose 0.04 µM) | – | 31.2 | 125 | 85.1 | 76.1 | 106 | 32.6 | 228 | 162 | 125 | 183 | 142 | 69.8 | 137 | 134 | 146 | 250 | – | 157 | 149
O=C(Nc1cc(C(F)(F)F)cc(C(F)(F)F)c1)c1cc(Cl)ccc1O + N#Cc1c(O)c2c(-c3ccc(-c4ccccc4O)cc3)csc2[nH]c1=O [A769662] (first compound 0.016 µM, partner dose 2 µM) | 61.5 | 28.1 | 109 | 35 | 178 | 81.6 | 32.6 | 119 | 106 | 34 | 196 | 81 | 95.5 | 266 | 138 | 142 | – | – | – | –
CC[C@]1(O)C[C@H]2CN(CCc3c([nH]c4ccccc34)[C@@](C(=O)OC)(c3cc4c(cc3OC)N(C=O)[C@H]3[C@@](O)(C(=O)OC)[C@H](OC(C)=O)[C@]5(CC)C=CCN6CC[C@]43[C@@H]65)C2)C1 [vincristine] + CCc1ccc(CCOc2ccc(CC3SC(=O)NC3=O)cc2)nc1 [pioglitazone] (first compound 0.0001 µM, partner dose 2 µM) | 113 | 107 | 2230 | 342 | 161 | 109 | 75.2 | 98 | 145 | 45.4 | 145 | 233 | 211 | 105 | 128 | 64.3 | – | – | – | –
O=c1[nH]nc(Sc2ncc([N+](=O)[O-])s2)n1-c1ccc2c(c1)OCCO2 + O=C(O)C(=O)Nc1sc2c(c1C(=O)O)CCNC2 [TCS401] (first compound 0.2 µM, partner dose 1.66667 µM) | 77.2 | 20.5 | 44.7 | 42.7 | 44.9 | 101 | 54.1 | 72.7 | 52.3 | 76.2 | 71.1 | 246 | 92.5 | 96 | 34.9 | 85.3 | – | – | – | –
CCCCCCCCCCCCCCCCCCOP(=O)([O-])OC1CC[N+](C)(C)CC1 [Perifosine] + COc1ccc(COc2ccc(Cc3cnc(N)nc3N)cc2OC)cc1 [GW2580] (first compound 0.4 µM, partner dose 1 µM) | 168 | 18.9 | 144 | 57.7 | 229 | 80.7 | 22.7 | 97 | 114 | 55.5 | 131 | 182 | 233 | 84.4 | 66.9 | 38.5 | – | – | – | –
O=C(Nc1cc(C(F)(F)F)cc(C(F)(F)F)c1)c1cc(Cl)ccc1O + Nc1ncn([C@H]2C[C@H](O)[C@@H](CO)O2)c(=O)n1 [decitabine] (first compound 0.016 µM, partner dose 0.1 µM) | – | 101 | 159 | 225 | 69.4 | 117 | 115 | 124 | 37.1 | 114 | 167 | 134 | 319 | 41 | – | 62 | 118 | – | 135 | 47.8

Shown as comma-separated lines: entries from further up.
Structure (SMILES),cleaved PARP positive nuclei fraction (501Mel) [%],cleaved PARP positive nuclei fraction (A101D) [%],cleaved PARP positive nuclei fraction (A2058) [%],cleaved PARP positive nuclei fraction (C32) [%],cleaved PARP positive nuclei fraction (CBRC008) [%],cleaved PARP positive nuclei fraction (CBRC014) [%],cleaved PARP positive nuclei fraction (CBRC016) [%],cleaved PARP positive nuclei fraction (CBRC017) [%],cleaved PARP positive nuclei fraction (COLO792) [%],cleaved PARP positive nuclei fraction (COLO800) [%],cleaved PARP positive nuclei fraction (COLO829) [%],cleaved PARP positive nuclei fraction (G361) [%],cleaved PARP positive nuclei fraction (IPC-298) [%],cleaved PARP positive nuclei fraction (IST-MEL1) [%],cleaved PARP positive nuclei fraction (LB2518-MEL) [%],cleaved PARP positive nuclei fraction (LOXIMVI) [%],cleaved PARP positive nuclei fraction (A375) [%],cleaved PARP positive nuclei fraction (CBRC013) [%],cleaved PARP positive nuclei fraction (MEL-HO) [%],cleaved PARP positive nuclei fraction (CBRC034) [%]
"O=c1[nH]nc(Sc2ncc([N+](=O)[O-])s2)n1-c1ccc2c(c1)OCCO2 + COc1cc(N2CCC(N3CCN(C)CC3)CC2)ccc1Nc1ncc(Cl)c(Nc2ccccc2S(=O)(=O)C(C)C)n1 [NVP-TAE684] (first compound 0.2 µM, partner dose 0.08 µM)",60.7,26.9,106,87.4,149,103,28.5,47.9,67.1,86.9,173,47.8,40.7,136,221,132,–,–,–,–
"O=C(/C=C/c1cccnc1)NCCCCC1CCN(C(=O)c2ccccc2)CC1 + NCC(=O)Nc1ccc(-n2nc(C(F)(F)F)cc2-c2ccc3c(ccc4ccccc43)c2)cc1 [OSU03012] (first compound 0.01 µM, partner dose 1 µM)",–,93.7,71.6,150,2800,108,294,417,831,230,261,1700,300,89.1,–,27.6,7240,131,75.4,–
